Measured values reported in PubChem BioAssay AID493014 (National Center for Advancing Translational Sciences (NCATS), 2011).
This is one part of the list. Further columns of the screen follow, without active or inactive calls. Most of these compounds were active or inconclusive in the main read-out, so they are no random draw. Words in brackets tell the shape of the fitted curve; partial curves, single points and poor fits give uncertain potencies.

Experiment: qHTS Assay to Find Inhibitors of Chronic Active B-Cell Receptor Signaling
Conditions: ABC-DLBCL IkBa-CBG/CBR reporter, luminescence ratio (green luciferase fused to IkBa over red control in TMD8 lymphoma cells), 4 h
Summary of the method: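 TMD8 human ABC-DLBCL cells with doxycycline-inducible IκBα–green luciferase fusion and unfused red luciferase, in 0.5% FBS medium; compounds up to 46 uM, 4 h at 37C. Green/red luminescence ratio, filter-overlap corrected, fitted to concentration-response curves.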

[1] = measured here: CBR red luminescence, cell number
[2] = measured here: IkBa-CBG green luminescence

| SMILES | AC50 [1] | AC50 [2] |
| --- | --- | --- |
| CCCn1c(=NC(=O)c2c(-c3c(F)cccc3Cl)noc2C)c(C(=O)OCC)cc2c(=O)n3ccccc3nc21 | 1.64 µM [rising, full curve] |  |
| CCCNC(=O)c1c(N)n(-c2cc(OC)cc(OC)c2)c2nc3ccccc3nc12 | 5.62 µM [falling, full curve] |  |
| O=c1[nH]c(C2CCN(S(=O)(=O)c3cccc(C(F)(F)F)c3)CC2)nc2c1nnn2Cc1cccc(F)c1 | 17.8 µM [falling, single point] |  |
| NC(=NCCc1c[nH]c2ccccc12)NS(=O)(=O)c1ccc2ccccc2c1 | 20.6 µM [falling, partial curve] |  |
| CC(=O)N/N=C\c1cccc(OC/C=C/c2ccccc2)c1 | 10 µM [falling, partial curve] |  |
| CC1CC(C)CN(C(=O)COc2ccc([N+](=O)[O-])cc2Cl)C1 (configuration not stated) | 35.5 µM [rising, single point] |  |
| Cc1[nH]n(-c2ccccc2)c(=O)c1N=Nc1ccc(C(=O)O)cc1 | 0.398 µM [falling, full curve] |  |
| CSCCC(NS(=O)(=O)c1ccc(C)cc1)C(=O)NCC(C)(C)N1CCOCC1 (configuration not stated) | 29.1 µM [rising, partial curve, poor fit] |  |
| COc1ccc(S(=O)(=O)N2CCOC2CNC(=O)C(=O)NCc2cccnc2)cc1C (configuration not stated) | 7.08 µM [rising, partial curve, poor fit] |  |
| CCOC(=O)C1CCN(S(=O)(=O)c2cn(C)c(=O)n(C)c2=O)CC1 | 13 µM [rising, partial curve, poor fit] |  |
| CCOC(=O)N1CCN(C(=O)COc2ccc(S(=O)(=O)NC(C)C)cc2)CC1 | 6.51 µM [rising, partial curve, poor fit] |  |
| COc1ccccc1C(=O)NNC(=S)NC(=O)c1sc2ccccc2c1Cl | 0.411 µM [falling, full curve] |  |
| Brc1ccc(-c2nnc(-c3ccccc3)c(N3CCSCC3)n2)cc1 | 1.58 µM [falling, full curve] |  |
| CC1Cc2ccccc2N1S(=O)(=O)c1cccc(C(=O)OCC(=O)N2CCOCC2)c1 (configuration not stated) | 16.4 µM [rising, partial curve, poor fit] |  |
| CCCCOc1ccc(C(=O)NCC(=O)N2CC(C)OC(C)C2)cc1 (configuration not stated) | 29.1 µM [rising, single point] | 4.61 µM [falling, partial curve, poor fit] |
| COc1ccccc1/C=N/NC(=O)C(NC(=O)c1ccccc1)=C(C)C | 5.8 µM [falling, partial curve] |  |
| Cc1cc(OCC(=O)N(C)c2c(N)n(Cc3ccccc3)c(=O)[nH]c2=O)c(C(C)C)cc1Cl | 7.31 µM [rising, partial curve, poor fit] |  |
| COc1ccc(NC2CC(=O)N(c3ccccc3)C2=O)cc1 (configuration not stated) | 0.116 µM [rising, full curve] |  |
| CCOC(=O)CSc1nnc(SCCN2C(=O)c3ccccc3C2=O)s1 | 29.1 µM [falling, single point] |  |
| O=C(Nc1ccccc1)O/N=C/c1ccc(F)cc1 | 2 µM [falling, full curve] |  |
| O=C(Cn1ccc([N+](=O)[O-])n1)Nc1nc2ccccc2s1 | 12.6 µM [falling, partial curve] |  |
| CC1(C)CC(=O)C(C=Nc2ccccc2Sc2ccccc2)=C(O)C1 | 25.9 µM [rising, partial curve, poor fit] |  |

Rewritten with bars between the fields: part of the list above.
SMILES | AC50 [1] | AC50 [2]
COc1ccc(S(=O)(=O)N2CCOC2CNC(=O)C(=O)NCc2cccnc2)cc1C (configuration not stated) | 7.08 µM [rising, partial curve, poor fit] | 
CCOC(=O)C1CCN(S(=O)(=O)c2cn(C)c(=O)n(C)c2=O)CC1 | 13 µM [rising, partial curve, poor fit] | 
CCOC(=O)N1CCN(C(=O)COc2ccc(S(=O)(=O)NC(C)C)cc2)CC1 | 6.51 µM [rising, partial curve, poor fit] | 
COc1ccccc1C(=O)NNC(=S)NC(=O)c1sc2ccccc2c1Cl | 0.411 µM [falling, full curve] | 

(further entries)

| SMILES | AC50 [1] | AC50 [2] |
| --- | --- | --- |
| COc1ccc(C(=O)Nc2nc(CC(=O)NCCc3cccc(OC)c3)cs2)cc1 | 20.6 µM [falling, partial curve, poor fit] |  |
| COc1cc(/C=N/NC(=O)NC2CCCCC2)ccc1O |  | 11.2 µM [falling, partial curve] |
| COc1ccc(-n2c(SCC(=O)N3CCOCC3)nnc2C(C)N2CCCCC2)cc1 (configuration not stated) | 5.01 µM [rising, single point] |  |
| COc1ccc(C(=O)Nc2ccc3oc(Cc4ccc(Cl)cc4)nc3c2)cc1OC | 25.9 µM [falling, partial curve, poor fit] |  |
| O=C(/C=C\Nc1ccccn1)c1ccccc1 | 3.55 µM [falling, full curve] |  |
| CC(=O)N1CCC(Nc2ccc(C)cc2)CC1 | 14.6 µM [rising, single point] |  |
| COC(=O)c1cn(C(=O)c2ccc(C)cc2)c2ccccc12 | 2.24 µM [rising, partial curve, poor fit] |  |
| C=CCn1c(Sc2ncc([N+](=O)[O-])s2)n[nH]c1=O | 20 µM [falling, single point] |  |
| CCC(=O)NCCCCCCNC(=O)CC | 18.4 µM [rising, partial curve, poor fit] |  |
| CN1C(=O)C2(OCC(COc3ccc(Cl)cc3)O2)c2ccccc21 (configuration not stated) | 0.82 µM [rising, full curve, poor fit] |  |
| COc1cccc(CC(=O)N2CCN(c3ccccc3[N+](=O)[O-])CC2)c1 | 11.2 µM [falling, partial curve, poor fit] |  |
| CC(C)NS(=O)(=O)c1ccc(CCC(=O)Nc2cc(Cl)ccc2Oc2ccccc2)cc1 | 29.1 µM [falling, single point] |  |
| Nc1nonc1C(=O)N/N=C/c1ccc(-c2ccc(Cl)c(C(=O)O)c2)o1 | 31.6 µM [falling, single point] |  |
| CC(C)c1ccccc1OCCNC(=S)NC(=O)c1cccnc1 | 35.5 µM [falling, single point] |  |
| C=CCc1ccc(OCC(O)COCC)c(OC)c1 (configuration not stated) | 2.91 µM [rising, single point] |  |
| Cn1cc(-c2nnnn2-c2cccc(C(F)(F)F)c2)c(C(F)(F)F)n1 | 29.1 µM [falling, single point] |  |
| CCc1ccc2oc(C(=O)Nc3nonc3C)c(C)c2c1 | 12.6 µM [falling, single point] |  |
| COc1ccnc(NCc2ccc(Cl)cc2)c1C#N | 1.3 µM [rising, full curve, poor fit] |  |
| Cc1ccc(NC(=O)c2cnn(-c3ccccc3)c2C)cc1 | 5.62 µM [rising, single point] |  |
| COc1ccc(NC(=O)C2CCCN2S(=O)(=O)c2cccc3cccnc23)c(OC)c1 (configuration not stated) | 8.2 µM [rising, partial curve, poor fit] |  |
| COc1cc2sc(C)nc2cc1C | 0.0891 µM [rising, full curve, poor fit] |  |
| Cc1cc(C(=O)NNC(=O)c2ccccc2O)c(C)o1 | 11.6 µM [falling, partial curve] |  |

| SMILES | AC50 [1] | AC50 [2] |
| --- | --- | --- |
| NC(=O)c1cccnc1Oc1ccc(Cl)cc1 | 0.178 µM [rising, full curve, poor fit] |  |
| O=C(CS)Nc1ccc2ccccc2c1 | 35.5 µM [falling, single point] |  |
| Cc1[nH]nc2c1C1(CCN(C(=O)OCc3ccccc3)CC1)C(C#N)=C(N)O2 | 3.66 µM [falling, partial curve] |  |
| CCS(=O)(=O)NCCc1cc2ccc(C)cc2[nH]c1=O | 0.1 µM [rising, full curve, poor fit] |  |
| C[C@H](CO)N1C[C@H](C)[C@@H](CN(C)S(=O)(=O)c2cn(C)cn2)Oc2c(NC(=O)Nc3ccc4c(c3)OCO4)cccc2C1=O | 0.00517 µM [rising, full curve, poor fit] |  |
| CC(=O)c1sc(NC(=O)COc2ccc(C)c(C)c2)nc1C | 7.31 µM [falling, partial curve] |  |
| Cc1[nH]nc2c1C(c1cccc(O)c1)C1=C(CC(C)(C)CC1=O)N2 (configuration not stated) | 35.5 µM [falling, single point] |  |
| CN(c1ccccc1)c1nc(N)c([N+](=O)[O-])c(Nc2ccccc2F)n1 | 12.6 µM [rising, single point] |  |
| O=C(CSc1nc2scc(-c3ccccc3)c2c(=O)[nH]1)NC1CCCCC1 | 3.55 µM [falling, single point] |  |
| S=C1SCN(Cc2ccco2)CN1Cc1ccco1 | 35.5 µM [falling, single point] | 22.4 µM [falling, single point] |
| COc1cc(/C=C/[N+](=O)[O-])ccc1OCc1cccc(C(=O)O)c1 | 0.355 µM [falling, full curve] |  |
| Cn1c(N)c(C#N)c2c(c1=S)COC(C)(C)C2 | 5.8 µM [rising, single point] |  |
| CCOC(=O)CS(=O)(=O)c1nc(-c2ccc(F)cc2)cc(C(F)(F)F)n1 | 20.6 µM [falling, partial curve, poor fit] |  |
| COc1ccc(CN2CCN(C(=O)CCC(=O)Nc3nnc(C4CCCCC4)s3)CC2)cc1F | 11.2 µM [rising, partial curve] |  |
| O=C(Nc1nnc(C2CC2)s1)c1ccc(Cl)nc1 | 16.4 µM [falling, partial curve, poor fit] |  |
| Cc1cc(NC(=O)COc2ccccc2C#N)no1 | 20.6 µM [rising, single point] |  |
| COc1ccc(-c2nc(C#N)c(N3CCOCC3)o2)cc1OC |  | 18.4 µM [falling, partial curve, poor fit] |
| COc1ccc(C2C(C#N)=C(N)Oc3c2ccc2cccnc32)cc1OC (configuration not stated) |  | 17.8 µM [falling, single point] |
| Cc1nc2ccc(S(=O)(=O)Nc3cc(-c4nc5cccnc5s4)ccc3C)cc2s1 |  | 14.6 µM [falling, partial curve, poor fit] |
| COc1ccc(NC2c3ccccc3C(=O)N2Cc2ccccc2Cl)cc1OC (configuration not stated) | 15.8 µM [falling, single point] |  |
| Cc1cccc(C)c1NC(=S)NC(=O)CCc1ccccc1 | 4.47 µM [falling, partial curve, poor fit] |  |
